Measurements as given in paper doi:10.1101/2023.02.16.528822.

By UniProt entry, the sequences of proteins in these tests, tags left out.
UniProt Q76E23: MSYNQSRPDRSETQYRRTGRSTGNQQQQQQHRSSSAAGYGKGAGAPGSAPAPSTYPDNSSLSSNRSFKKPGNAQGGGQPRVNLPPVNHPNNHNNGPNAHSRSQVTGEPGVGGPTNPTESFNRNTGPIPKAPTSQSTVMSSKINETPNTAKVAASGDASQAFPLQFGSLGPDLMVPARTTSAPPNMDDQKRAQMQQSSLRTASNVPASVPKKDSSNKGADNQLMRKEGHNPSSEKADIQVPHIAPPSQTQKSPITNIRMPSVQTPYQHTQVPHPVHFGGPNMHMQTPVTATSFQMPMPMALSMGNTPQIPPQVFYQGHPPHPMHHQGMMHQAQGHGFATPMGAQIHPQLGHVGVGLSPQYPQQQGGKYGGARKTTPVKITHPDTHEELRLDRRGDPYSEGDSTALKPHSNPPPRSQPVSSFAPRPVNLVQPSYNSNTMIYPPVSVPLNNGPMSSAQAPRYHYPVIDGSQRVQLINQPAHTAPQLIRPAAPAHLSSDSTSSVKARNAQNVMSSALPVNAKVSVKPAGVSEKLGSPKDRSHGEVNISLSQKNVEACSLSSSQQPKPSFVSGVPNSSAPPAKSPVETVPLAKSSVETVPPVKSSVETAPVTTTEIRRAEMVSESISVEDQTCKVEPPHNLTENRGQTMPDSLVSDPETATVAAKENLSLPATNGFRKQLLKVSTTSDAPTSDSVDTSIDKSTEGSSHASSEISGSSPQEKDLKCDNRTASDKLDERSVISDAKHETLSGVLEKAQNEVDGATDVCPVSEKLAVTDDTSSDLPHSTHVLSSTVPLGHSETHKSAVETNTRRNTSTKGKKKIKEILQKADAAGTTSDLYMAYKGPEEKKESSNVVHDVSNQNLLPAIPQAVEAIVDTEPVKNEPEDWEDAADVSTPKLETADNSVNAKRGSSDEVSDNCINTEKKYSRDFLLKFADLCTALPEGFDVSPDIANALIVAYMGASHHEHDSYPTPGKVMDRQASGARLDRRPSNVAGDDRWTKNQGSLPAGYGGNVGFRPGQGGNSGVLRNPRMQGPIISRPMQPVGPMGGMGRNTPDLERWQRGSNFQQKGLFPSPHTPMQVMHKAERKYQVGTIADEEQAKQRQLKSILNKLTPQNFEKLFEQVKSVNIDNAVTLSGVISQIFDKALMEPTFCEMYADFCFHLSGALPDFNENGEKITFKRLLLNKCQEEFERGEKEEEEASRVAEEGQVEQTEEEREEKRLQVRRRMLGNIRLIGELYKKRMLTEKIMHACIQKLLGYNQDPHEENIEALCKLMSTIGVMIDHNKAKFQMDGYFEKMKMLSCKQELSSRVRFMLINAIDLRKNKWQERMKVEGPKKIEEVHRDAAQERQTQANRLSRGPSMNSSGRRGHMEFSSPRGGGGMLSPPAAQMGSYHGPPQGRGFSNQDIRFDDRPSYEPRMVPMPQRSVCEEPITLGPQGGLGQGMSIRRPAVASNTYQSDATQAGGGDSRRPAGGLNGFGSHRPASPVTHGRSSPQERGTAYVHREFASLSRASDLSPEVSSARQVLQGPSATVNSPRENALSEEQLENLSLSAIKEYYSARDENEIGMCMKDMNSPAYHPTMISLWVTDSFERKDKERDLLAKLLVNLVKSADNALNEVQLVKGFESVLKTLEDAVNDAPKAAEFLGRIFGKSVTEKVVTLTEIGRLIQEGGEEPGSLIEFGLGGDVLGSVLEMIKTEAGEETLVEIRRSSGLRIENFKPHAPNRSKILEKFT

Molecular target: T1, eIF(iso)4E (Arabidopsis (endogenous in Arabidopsis plants)) (UniProt O04663)
T1 sequence: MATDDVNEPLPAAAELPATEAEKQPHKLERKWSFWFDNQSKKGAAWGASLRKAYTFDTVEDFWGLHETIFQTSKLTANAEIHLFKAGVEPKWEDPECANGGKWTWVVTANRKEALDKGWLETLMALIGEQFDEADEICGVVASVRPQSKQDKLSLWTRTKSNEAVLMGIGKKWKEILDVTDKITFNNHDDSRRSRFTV
Assay: affinity purification with mass spectrometry

For eIF4G (from UniProt Q76E23 1-1727), the binding was “no binding”.

These are yes or no findings as the source states them, for the method shown. In cells and extracts the contact can be indirect. Here binding means that the protein was enriched with, or labelled near, the bait; the list need not be complete. No binding means not detected with the bait.
